Data as given in patent US20130172529 (published 2013).

Key:
[1] = general procedure: Fmoc solid-phase peptide synthesis; 2-chlorotrityl-type resin; HOBT/DIPCDI; conditions: whole synthesis
[2] = Fmoc solid-phase peptide synthesis; 2-chlorotrityl-type resin; HOBT/DIPCDI; conditions: whole synthesis

| Substance | crude yield [1] [%] | final purity (method not given) [1] [%] | isolated yield [1] [%] | outcome [1] | difficulty met [2] |
| --- | --- | --- | --- | --- | --- |
| Ac-SDAAVDTSSEITTKDLKEKKEVVEEAEN-OH | 40 |  |  |  |  |
| Ac-SDKPDMAEIEKFDKSKLKKTETQEKNPLPSKETIEQEKQAGES-OH |  | 99 | 50 | gave rise to gels that blocked the reaction. The end product could not be identified | low purity synthesis crude product, unviable for an industrial process |
